Data source: PubChem BioAssay AID1259254 (NCATS, 2017)
Shown is one part, drawn at random, of about 59,000 reagents tested. About 1,550 of them (2.6%) count as active. 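G2 share is only a proxy for re-replication; each gene was hit by three separate siRNAs, and active genes were retested.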 Entries without a mark were called inactive. The numbers tell different reagents against one gene apart. Further read-outs or replicates are left out here. No sequences are given here. Not given: the amount of reagent.

Screen: 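Genome-wide screen for genes that prevent DNA re-replication in cancer cells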 (primary screen)
Cells: human HCT116 colorectal cancer cells
Reagent: single siRNA against human genes
Time to read-out: 3 days
Measurement: 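Nuclei stained with Hoechst and imaged; cell-cycle phase assigned by DNA content; G2 share scaled per plate, non-targeting siRNA 0%, GMNN siRNA 100%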
Scale: G2 robust z-score: higher = more G2 cells, more excess DNA replication
Hit rule: 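Active siRNAs have a G2 robust z of 5 or more median absolute deviations over the median, which in these data means about 38% or higher of GMNN control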

The opening 3 records, to show the layout:
Target gene	reagent no.	G2 robust z-score
LSM10	1	0.846
LSM10	2	0.609
LSM10	3	0.45

Main list, from the start:
Target gene	reagent no.	G2 robust z-score
LSM10	1	0.846
LSM10	2	0.609
LSM10	3	0.45
SCARF1	1	-0.123
SCARF1	2	4.85
SCARF1	3	2.02
GPR65	1	-0.534
GPR65	2	-1.11
GPR65	3	3.1
RAB15	1	5.25 (active)
RAB15	2	1.41
RAB15	3	0.327
MORN3	1	-0.2
MORN3	2	2.76
MORN3	3	-0.857
TUBGCP6	1	0.815
TUBGCP6	2	2.74
TUBGCP6	3	3.86
RAB11FIP1	1	3.16
RAB11FIP1	2	2.15
RAB11FIP1	3	-0.143
RPS16P10	1	0.0967
RPS16P10	2	-0.944
RPS16P10	3	-0.161
SUPT4H1	1	3.39
SUPT4H1	2	0.256
SUPT4H1	3	2.7
WDR18	1	3.05
WDR18	2	-0.363
WDR18	3	3.12
